# PubChem BioAssay AID652259 | Drosophila RNAi Screening Center – 2013
# Aim: 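Genome-wide hunt for genes that control Wingless pathway activity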 (primary screen)
# Cells: Drosophila clone 8 imaginal disc epithelial cells
# Reagents: long dsRNA against Drosophila genes
# Conditions: pathway stimulated by co-transfected Wingless expression plasmid
# Detection: 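Dual luciferase reads per well after Wingless plasmid stimulation: reporter firefly light and Renilla control light; activity is firefly divided by Renilla, a ratio not deposited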
# Direction: firefly reporter light: higher = more Wg reporter light, before normalisation; Renilla control light: higher = more transfected or surviving cells
# Hit rule: 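a knock-down is a candidate when at least two out of four statistical tests show it departing from its plate mean; one test alone signals a weak candidate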
# Calls: active = candidate regulator (raises or lowers reporter); inactive = not a candidate
# The screen tested about 22,000 reagents; below is an unselected part of those with a known target gene and a result. Over the whole deposit, 233 (1.1%) are marked active. 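Light values are raw, unnormalised plate reads; the ratio scores behind the reporter calls were not deposited.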 The numbers tell different reagents against one gene apart. Not given: the amount of reagent, the time to read-out, the dose of the treatment.
gene,reagent,"reporter change call, replicate 1","firefly reporter light, replicate 1","firefly reporter light, replicate 2","Renilla control light, replicate 1","Renilla control light, replicate 2",Outcome
CG6933,1,,4615,,1845,,inactive
rudhira,1,,3207,7569,451,937,inactive
rudhira,2,,8.16e5,8.03e5,3.44e5,3.54e5,inactive
MED10 (Mediator complex subunit 10),1,,8592,,3591,,inactive
CG13198,1,,8378,,3489,,inactive
CG34236,1,,20258,,14160,,inactive
Adgf-B (Adenosine deaminase-related growth factor B),1,,7816,,3105,,inactive
Rrp40 (Ribosomal RNA processing 40),1,,27978,,12277,,inactive
CG9123,1,,23180,,11824,,inactive
TwdlY (TweedleY),1,,5131,7.38e5,1874,3.18e5,inactive
CG7330,1,,8797,,3576,,inactive
CG7330,2,,6987,,3265,,inactive
CG31898,1,,14948,,7690,,inactive
CG10834,1,,2291,5853,777,2242,inactive
HSPC300 (Haematopoietic stem/progenitor cell protein 300),1,,6.16e5,6.56e5,2.74e5,2.50e5,inactive
CG34286,1,,7027,,2982,,inactive
CG34286,2,,2.03e5,3.57e5,1.18e5,1.49e5,inactive
Irbp (Inverted repeat-binding protein),1,,13911,,3744,,inactive
CG8136,1,,15568,,3984,,inactive
CG16775,1,,11061,,6048,,inactive
Dnaaf5 (Dynein axonemal assembly factor 5),1,,2892,,1212,,inactive
Cbl (Cbl proto-oncogene),1,,1490,10813,1200,3668,inactive
Cbl (Cbl proto-oncogene),2,,1465,5056,1016,2261,inactive
Dnz1 (DNZDHHC/NEW1 zinc finger protein 11),1,,11628,,3521,,inactive
gd (gastrulation-defective),1,,16744,,9227,,inactive
CG42724,1,,8057,,1203,,inactive
CG42724,2,,5.95e5,6.96e5,2.46e5,2.70e5,inactive
CG17298,1,,35862,,6649,,inactive
Tango14 (Transport and Golgi organization 14),1,,4165,9427,1472,3445,inactive
hale (hale-bopp),1,,15954,,4731,,inactive
CG11629,1,,2819,7639,664,2120,inactive
CG8677,1,,11900,,2426,,inactive
PGRP-SC2 (Peptidoglycan recognition protein SC2),1,,2637,7648,1004,3288,inactive
side-VIII (sidestep VIII),1,,22875,,23105,,inactive
side-VIII (sidestep VIII),2,,31479,,13461,,inactive
side-VIII (sidestep VIII),3,,5728,,2416,,inactive
SCCRO3 (Squamous cell carcinoma-related oncogene 3),1,Wg reporter activity lowered,4251,,1040,,inactive
CG15370,1,,18745,,5321,,inactive
Nep1 (Neprilysin 1),1,,2844,8888,857,2240,inactive
Nep1 (Neprilysin 1),2,,9052,,2151,,inactive
Pldn (Pallidin),1,,9315,,3872,,inactive
Ctl2 (Choline transporter-like 2),1,,2739,8091,1053,2685,inactive
BCL7-like,1,,3177,7761,1264,3128,inactive
CG4009,1,,9625,,1997,,inactive
Lst (Limostatin),1,,8555,,3536,,inactive
CG2269,1,,14796,,5301,,inactive
"betaNACtes6 (Nascent-associated complex beta-subunit-like, testis 6)",1,,7.66e5,8.42e5,1.71e5,1.26e5,inactive
CG6414,1,,13991,,6960,,inactive
RanBPM (Ran-binding protein M),1,,13411,,2232,,inactive
Pfdn2 (Prefoldin 2),1,,4250,,2363,,inactive
Or56a (Odorant receptor 56a),1,,5931,,2053,,inactive
ACXD (Adenylyl cyclase X D),1,,2221,,1376,,inactive
CG10597,1,,24496,,7782,,inactive
put (punt),1,,5528,,2054,,inactive
Acsf3 (Acyl-CoA synthetase family member 3),1,,24064,,13864,,inactive
mRpL22 (mitochondrial ribosomal protein L22),1,,15177,,7893,,inactive
CG33189,1,,6.21e5,7.05e5,3.80e5,2.99e5,inactive
CG18335,1,,7232,,1955,,inactive
CG31528,1,,1761,,996,,inactive
Cog1 (Component of oligomeric golgi complex 1),1,,8145,,2633,,inactive
tap (target of Poxn),1,,6624,,2506,,inactive
Fum1 (Fumarase 1),1,,2829,8951,914,3483,inactive
CG14752,1,,3062,10736,1053,3504,inactive
CG30265,1,,7.12e5,6.59e5,3.54e5,2.75e5,inactive
CG33769,1,,21559,,6339,,inactive
CCKLR-17D1 (Cholecystokinin-like receptor at 17D1),1,,21687,,9133,,inactive
CCKLR-17D1 (Cholecystokinin-like receptor at 17D1),2,,20028,,14378,,inactive
CCKLR-17D1 (Cholecystokinin-like receptor at 17D1),3,,14149,,11024,,inactive
CG8034,1,,2944,5821,661,1714,inactive
Pde11 (Phosphodiesterase 11),1,,4950,,1533,,inactive
Pde11 (Phosphodiesterase 11),2,,3668,10509,505,3191,inactive
"betaNACtes5 (Nascent-associated complex beta-subunit-like, testis 5)",1,,3276,,1105,,inactive
Kul (Kuzbanian-like),1,,4752,,2228,,inactive
